PubChem BioAssay AID1259272 | Sanger Institute – 2017
Test: 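Kinome-wide siRNA search for genes whose silencing boosts targeted drug effects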 (primary screen). Cell system: SW1116 human colorectal cancer cells. Knock-down reagent: siRNA pool against human genes. Treatment: anchor drugs BYL719 (1 µM), cetuximab (5 µg/ml) or trametinib (10 nM), or DMSO vehicle; exposure length not given. Measurement: 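Replicate-averaged viability versus control-pool wells, with a robust z-score for siRNA alone and a per-drug synergy score (BYL719, cetuximab, trametinib)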. Reading the numbers: viability z-score, no drug: higher = more cells remaining; strongly negative means essential gene; viability, no drug: higher = more viable cells; synergy score with BYL719: higher = stronger synthetic-lethal synergy with the drug. Rule for the call: 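a robust z-score under -3 with siRNA and no drug marks the gene essential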. Meaning of the calls: active = essential (knock-down alone); inactive = no change.
The whole screen tested 794 reagents; this is a random part of them. Of all reagents, 7 (0.88%) are marked active. 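Essential calls reflect knock-down without drug only, not synergy with drugs; drug exposure length not given.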 Unmarked entries are inactive. No viability above 1 is reported: the scale is capped. Not all columns of the deposit are shown. Not stated in the record: the amount of reagent, the time to read-out.

| gene | viability z-score, no drug | viability, no drug (fraction of control) | synergy score with BYL719 |
| --- | --- | --- | --- |
| VRK1 (VRK serine/threonine kinase 1) | 0.842 | 1 | -0.0788 |
| CSNK1G2 (casein kinase 1 gamma 2) | -1.12 | 0.791 | -0.235 |
| CHKB (choline kinase beta) | -0.948 | 0.809 | -0.174 |
| DGKA (diacylglycerol kinase alpha) | 0.26 | 0.938 | -0.0472 |
| ALDH18A1 (aldehyde dehydrogenase 18 family member A1) | 0.842 | 1 | -0.0718 |
| FES (FES proto-oncogene, tyrosine kinase) | -1.76 | 0.722 | -0.17 |
| CAMK2N1 (calcium/calmodulin dependent protein kinase II inhibitor 1) | -1.57 | 0.743 | 0.0937 |
| CLK2 (CDC like kinase 2) | -0.281 | 0.88 | 0.044 |
| PLK3 (polo like kinase 3) | 0.172 | 0.929 | -0.057 |
| EPHB1 (EPH receptor B1) | -1.56 | 0.744 | -0.0319 |
| PNKP (polynucleotide kinase 3'-phosphatase) | -2.35 | 0.66 | -0.198 |
| PRKG2 (protein kinase cGMP-dependent 2) | -1.23 | 0.78 | -0.145 |
| ADCK1 (aarF domain containing kinase 1) | 0.175 | 0.929 | -0.144 |
| STKLD1 (serine/threonine kinase like domain containing 1) | -0.237 | 0.885 | -0.0397 |
| PACSIN1 (protein kinase C and casein kinase substrate in neurons 1) | 0.842 | 1 | 0.0583 |
| NUP107 (nucleoporin 107) | -1.16 | 0.787 | -0.128 |
| CSNK1A1L (casein kinase 1 alpha 1 like) | -0.178 | 0.891 | -0.169 |
| PAK5 (p21 (RAC1) activated kinase 5) | -1.05 | 0.798 | -0.0653 |

Records listed so far whose target name begins with A or a:
| gene | viability z-score, no drug | viability, no drug (fraction of control) | synergy score with BYL719 |
| --- | --- | --- | --- |
| ALDH18A1 (aldehyde dehydrogenase 18 family member A1) | 0.842 | 1 | -0.0718 |
| ADCK1 (aarF domain containing kinase 1) | 0.175 | 0.929 | -0.144 |

The results go on.
| gene | viability z-score, no drug | viability, no drug (fraction of control) | synergy score with BYL719 |
| --- | --- | --- | --- |
| TNNI3K (TNNI3 interacting kinase) | -0.447 | 0.863 | -0.205 |
| CKB (creatine kinase B) | 0.842 | 1 | -0.0788 |
| BMPR1B (bone morphogenetic protein receptor type 1B) | 0.842 | 1 | -0.0788 |
| PSKH1 (protein serine kinase H1) | 0.842 | 1 | -0.0505 |
| CDC42BPG (CDC42 binding protein kinase gamma) | 0.842 | 1 | 0.00106 |
| NME6 (NME/NM23 nucleoside diphosphate kinase 6) | 0.842 | 1 | 0.0447 |
| SYK (spleen associated tyrosine kinase) | -3.91 (active) | 0.494 | -0.18 |
| SRGAP3 (SLIT-ROBO Rho GTPase activating protein 3) | 0.842 | 1 | -0.0105 |
| CHD4 (chromodomain helicase DNA binding protein 4) | -0.727 | 0.833 | 0.00658 |
| CDK5R2 (cyclin dependent kinase 5 regulatory subunit 2) | 0.842 | 1 | -0.0788 |
| CALM2 (calmodulin 2) | -0.533 | 0.854 | -0.0825 |
| PKIB (cAMP-dependent protein kinase inhibitor beta) | 0.842 | 1 | -0.0788 |
| SCYL3 (SCY1 like pseudokinase 3) | -0.884 | 0.816 | -0.114 |
| TTBK1 (tau tubulin kinase 1) | 0.267 | 0.939 | -0.073 |
| CDK3 (cyclin dependent kinase 3) | 0.842 | 1 | -0.0788 |
| CUL1 (cullin 1) | 0.842 | 1 | -0.0357 |
| PIP4K2A (phosphatidylinositol-5-phosphate 4-kinase type 2 alpha) | 0.842 | 1 | -0.018 |
| ACVR1 (activin A receptor type 1) | 0.842 | 1 | 0.0111 |
| MECOM (MDS1 and EVI1 complex locus) | 0.842 | 1 | -0.0113 |
| PIP5KL1 (phosphatidylinositol-4-phosphate 5-kinase like 1) | -0.372 | 0.871 | -0.102 |
| KIT (KIT proto-oncogene, receptor tyrosine kinase) | 0.842 | 1 | -0.0788 |
| NEK11 (NIMA related kinase 11) | -0.92 | 0.812 | -0.0609 |
| EPHA6 (EPH receptor A6) | -2.25 | 0.671 | -0.144 |
| TEK (TEK receptor tyrosine kinase) | 0.842 | 1 | -0.0788 |
| MYO3A (myosin IIIA) | -1.44 | 0.757 | -0.0244 |
| TBK1 (TANK binding kinase 1) | -2.19 | 0.677 | -0.103 |
| IPPK (inositol-pentakisphosphate 2-kinase) | 0.842 | 1 | 0.00616 |
| MSR1 (macrophage scavenger receptor 1) | 0.124 | 0.924 | 0.00642 |
| EFNB3 (ephrin B3) | -1.79 | 0.72 | -0.0441 |
| NUP62 (nucleoporin 62) | 0.842 | 1 | -0.0639 |
| DGKG (diacylglycerol kinase gamma) | 0.842 | 1 | 0.0544 |
| HIPK1 (homeodomain interacting protein kinase 1) | 0.527 | 0.966 | -0.0839 |
